Laboratory results: PubChem BioAssay AID540303 (National Center for Advancing Translational Sciences (NCATS), 2011)
Hit rate of the full screen: of about 330,000 compounds, about 1,000 (0.3%) were called active. This list was built around the results that the source calls inconclusive (neither active nor inactive); the mix of calls is not that of the screen. The call rests on the fitted dose curve; in most records, active means well fitted inhibition curve with a large enough effect; inconclusive means small, poorly fitted or top-dose-only effect; inactive means no such curve, though single readings can be large or run the other way; tested in mouse RAW 264.7 cells. Where the call is inconclusive, the potency comes from a doubtful curve fit.

assay: qHTS for Inhibitors of Cell Surface uPA Generation; details: cell surface uPA generation assay; series mostly up to 38.3 µM; further: nearly all actives have a fitted effect of over 55% in size
In short: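 Validation set in qHTS format. RAW 264.7 cells were pre-plated overnight and then exposed to compounds (up to 38.3 uM final) for 24 h at 37 C in 5% CO2, followed by a luminescent ATP-Lite measurement.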
Potency means the concentration at half of the fitted maximal effect.

SMILES | Potency
O=c1[nH]c(/C=C/c2ccccn2)nc2ccccc12 | inconclusive: 2.51 µM [inhibitor, partial curve, poor fit]
Cc1cc(C)nc(N/N=C/C2=C(O)CC(c3ccc(F)cc3)CC2=O)n1 (stereo not given) | inconclusive: 3.16 µM [inhibitor, partial curve]
CCN1CCN(Cc2ccc(NC(=O)c3ccc(C)c(NC(=O)C(=O)c4c[nH]c5ccccc45)c3)cc2C(F)(F)F)CC1 | inconclusive: 12.6 µM [inhibitor, single point]
CCN1C/C(=C/c2ccc(OC)c(O)c2)C(=O)/C(=C/c2ccc(OC)c(O)c2)C1 | inconclusive: 10 µM [inhibitor, partial curve, poor fit]
CCCCN(CC)CCNC(=O)c1cc2c(C)nc3ccccc3c2o1 | inconclusive: 8.91 µM [inhibitor, single point]
Cc1ccc(C(=O)NCC(=O)NCC(=O)OCc2ccc(Oc3ccc([N+](=O)[O-])cc3)cc2)cc1 | inactive
O=C1CN(C(=O)c2c(F)cccc2F)C(c2ccccc2)c2cc(Br)ccc2N1 (stereo not given) | inconclusive: 3.55 µM [inhibitor, partial curve, poor fit]
CC(OC(=O)c1ccc([N+](=O)[O-])o1)C(=O)NC1CCCCC1C (stereo not given) | inactive
COc1ccc(/C=C/C(=O)N2CCCc3ccccc32)cc1 | inactive
CCn1cc(/C=C/C(=O)Nc2c(C)nn(Cc3ccccc3)c2C)cn1 | inactive
CCN1CCN(C(=O)c2oc(=O)c3ccccc3c2-c2ccc(C)cc2)CC1 | inconclusive: 10 µM [inhibitor, partial curve, poor fit]
COc1cccc(C(=O)Nc2nnc(-c3ccc(F)cc3)o2)c1 | inconclusive: 12.6 µM [inhibitor, single point]
Cc1nc(NC(=O)CCl)sc1C(=O)N(C)C | active: 10 µM
Cc1cccc(OCc2nc(C#N)c(NCc3ccc4c(c3)OCO4)o2)c1 | inactive
CCc1ccc(C(=O)COC(=O)c2cc([N+](=O)[O-])ccc2N2CCOCC2)cc1 | inactive
NC(=O)C1(N2CCCCC2)CCN(S(=O)(=O)c2cc(Cl)ccc2Cl)CC1 | inconclusive: 12.6 µM [inhibitor, single point]
C=C1C(=O)C=C[C@]2(C)C[C@@H]3OC(=O)[C@](C)(O)[C@H]3C[C@@H]12 | inconclusive: 3.55 µM [inhibitor, partial curve, poor fit]
O=C(c1ccc(-c2cc(O)c3ncccc3c2)cc1)N1CCNCC1 | inconclusive: 12.6 µM [inhibitor, partial curve, poor fit]
COc1cccc(C(=O)Nc2nnc(CCS(=O)(=O)c3ccc(C)cc3)s2)c1 | inconclusive: 7.94 µM [inhibitor, partial curve, poor fit]
CCOc1ccc(C(=O)N2CCc3cc(OC)c(OC)cc3C2)cc1OCC | inactive
CCOc1cc(/C=N/Nc2nnc(C)n2N)ccc1O | inconclusive: 7.94 µM [inhibitor, partial curve, poor fit]
COc1ccccc1-c1cc(-c2ccc(O)cc2)nc(N)c1C#N | inconclusive: 14.1 µM [inhibitor, partial curve, poor fit]
Cc1ccc(C(=O)N(C)CC(=O)Nc2ccc(Cl)c(C(F)(F)F)c2)cc1S(=O)(=O)N1CCCCC1 | inconclusive: 12.6 µM [inhibitor, single point]

SMILES | Potency
C/C(=C\c1ccc(N)cc1)c1nc2ccccc2[nH]1 | inconclusive: 8.91 µM [inhibitor, partial curve, poor fit]
COc1ccc(CN2CCNC(=O)C2CC(=O)NCCC2=CCCCC2)c(F)c1 (stereo not given) | inactive
CC(OC(=O)c1cccs1)C(=O)NCc1cccs1 (stereo not given) | inactive
Cc1cc(-c2cc(-c3ccc(Cl)cc3)on2)nc(NCC2CC2)n1 | inactive
Cc1ccc(CN2CCN(CCCc3ccccc3)CC2CCO)cc1 (stereo not given) | inactive
COc1ccccc1CNC(=O)C1CSC2(C)CCC(=O)N12 (stereo not given) | inconclusive: 1.78 µM [inhibitor, single point]
Cc1cccc(OCc2n[nH]c(=S)o2)c1 | inactive
CC(=O)N1CCN(C2=NC(=O)/C(=C/c3ccc(OS(=O)(=O)c4ccccc4)cc3)S2)CC1 | inconclusive: 7.94 µM [inhibitor, single point]
O=C(N=Nc1c(O)[nH]c2ccc([N+](=O)[O-])cc12)c1cc(-c2ccccc2Cl)nc2ccccc12 | inconclusive: 0.447 µM [inhibitor, full curve, poor fit]
CCOC(=O)c1[nH]c(C)c(C(=O)N2CCc3c([nH]c4ccccc34)C2c2ccccn2)c1C (stereo not given) | inconclusive: 10 µM [inhibitor, single point]
CN(C)CCCNc1cc(-c2ccccc2)nc2cc(-c3cccc(F)c3)nn12 | active: 5.01 µM
CCC1CCCCN1CCCNC(=O)c1cn(CC)c2ccc(S(=O)(=O)N(C)C3CCCCC3)cc2c1=O (stereo not given) | inconclusive: 7.08 µM [inhibitor, partial curve]
Cc1cccc(N2CCN(S(=O)(=O)c3ccc4c(c3)C(C)(C)C(=O)N4C)CC2)c1C | inactive
CC1=C(/C=C/C(C)=C/C=C/C(C)=C/C(=O)O)C(C)(C)CCC1 | inactive
Cc1ccsc1/C=N/Nc1nc2ccccc2[nH]1 | inconclusive: 8.91 µM [inhibitor, single point]
COc1ccccc1C(CC(=O)c1ccccc1)CC(=O)c1ccccc1 | inactive
CC1CN(C(=O)c2ccc(COc3ccc(C(C)C)cc3)o2)CC(C)O1 (stereo not given) | inconclusive: 7.08 µM [inhibitor, partial curve, poor fit]
COc1ccc(C(=O)NCCn2cc(SCC(=O)NCc3ccco3)c3ccccc32)cc1 | inactive
COC(=O)c1ccc(C(=O)OC)c(NC(=O)CCC(=O)O)c1 | inconclusive: 1 µM [inhibitor, single point]
COC(=O)C(NC(C)=O)(Nc1nc2c(C)cc(C)cc2s1)C(F)(F)F (stereo not given) | inactive
CC1(C)C2CCC1(C)C(NC(=O)/C=C/c1ccccc1)C2 (stereo not given) | inactive
CCC1CCCCN1CCCNC(=O)c1ccc2c(c1)N(Cc1c(F)cccc1Cl)C(=O)CS2 (stereo not given) | inconclusive: 1 µM [inhibitor, partial curve, poor fit]

Random excerpt: two entries already listed.
SMILES | Potency
Cc1nc(NC(=O)CCl)sc1C(=O)N(C)C | active: 10 µM
CC(OC(=O)c1ccc([N+](=O)[O-])o1)C(=O)NC1CCCCC1C (stereo not given) | inactive
